From patent US6555322B1, “α2-macroglobulin receptor as a receptor for CTGF” (FibroGen, Inc., priority 1999, dated 2003)

Test system: CTGF receptor on BMS2 cells
Test: Equilibrium binding of radioiodinated rhCTGF to BMS2 cells
Parameters: species or system murine
Conditions: FIG. 2

B1: connective tissue growth factor (protein)
chain: QNCSGPCRCPDEPAPRCPAGVSLVLDGCGCCRVCAKQLGELCTERDPCDPHKGLFCHFGSPANRKIGVCTAKDGAPCIFGGTVYRSGESFQSSCKYQCTCLDGAVGCMPLCSMDVRLPSPDCPFPRRVKLPGKCCEEWVCDEPKDQTVVGPALAAYRLEDTFGPDPTMIRANCLVQTTEWSACSKTCGMGISTRVTNDNASCRLEKQSRLCMVRPCEADLEENIKKGKKCIRTPKISKPIKFELSGCTSMKTYRAKFCGVCTDGRCCTPHRTTTLPVEFKCPDGEVMKKNMMFIKTCACHYNCPGDNDIFESLYYRKMYGDMA
notes: recombinant human CTGF produced in baculovirus-infected Hi 5 insect cells, also used radioiodinated
number of high affinity binding sites: less than 50,000 sites per cell | number of low affinity binding sites: greater than 50,000 sites per cell
